Source: US9422308B2, “Derivatives of docosahexaenoylethanolamide and uses thereof” (The United States of America, as represented by the …, priority 2012, dated 2016)
Where “and” joins values, the source holds several entries; their conditions need not be identical. Identical values can stand only once. At least one read-out could not be matched to a standard name with certainty. Some results were stated once for a whole list of compounds, not compound by compound.

Test system: cortical neurons
Test: neurite growth of embryonic mouse neurons (total neurite length/neuron, MAP2 immunostaining)
Assay type: cell-based
Settings: for effect on relative neurite length as compared to synaptamide: FIG. 3, relative to untreated controls; for Neurite Length/Neuron, individual values: cortical neurons, 48 h, three individual values
Experimental: To obtain embryonic mouse neurons for analysis, pregnant female mice were killed by cervical dislocation after exposure to CO2 inhalation. Embryonic neurons were prepared from E18 or P0 mouse hippocampi or cortex and cultured as described previously (Calderon and Kim, J. Neurochem., 90(4):979-88 (2004), errata in J Neurochem., September; 90(6):1540 (2004)), with slight modification. Briefly, hippocampi or cotices were dissected and dissociated by a method using either 0.25% trypsin (Gibco Invitrogen Corporation, Grand Island, N.Y.) in Hank's balanced salt solution (HBSS) or papain (20-30 U/mL) in dissociation media containing cysteine at 37° C. for 15 min. After the dissociation solution was aspirated off, cells were washed with same volume of HBSS, suspended in neurobasal medium (Gibco) containing 2% B27 supplement (Gibco), 1% glutamine/glutamax mix (1:4) (Gibco), 100 U/ml penicillin (Gibco) and 100 μg/ml streptomycin (Gibco), and seeded on poly-D-lysine chambered slides (Lab-Tek, Naperville, Ill.) at a density of 30,000 cells/cm^2. On the second day after seeding, the cells were treated with fatty acids, synaptamide or one of Compounds 1-50 for 48 h. Docosahexaenoic acid (DHA) and oleic acid (OA) were complexed with fatty acid-free bovine serum albumin (BSA; Sigma, St Louis, Mo.) in the presence of α-tocopherol (Sigma) under an argon atmosphere and darkness to prevent oxidation of the fatty acids. The mixture was mixed with fresh Neurobasal medium containing B27 supplement, glutamine/glutamax mix and antibiotics. Final concentrations of α-tocopherol and BSA in the culture medium were 40 μM and 0.01%, respectively. Alternatively, DHA, OA, synaptamide, or one of Compounds 1-50 were dissolved in DMSO and applied directly together with α-tocopherol. In such case, the final concentration of DMSO is less than 0.005%. All stock solutions were aliquoted under argon and stored at −70° C.
Cells were fixed with […] (Sigma) in PBS (pH 7.4) for 30 min. After permeabilization with 0.1% Triton X-100 (Sigma), cells were blocked for 1 h at 37° C. with PBS containing 10% goat serum (Gibco), and then incubated with the primary antibody against microtubule-associated protein (MAP2, mouse monoclonal 1:250; Sigma). After washing with PBS, cells were incubated with the corresponding Cy2-, Cy3-conjugated secondary antibody (Jackson Immunoresearch Laboratories Inc., West Grove, Pa.). For the nuclear staining, 0.06% 4,6-Diamidino-2-Phenylindole (Sigma) was used. After immunostaining, images were collected using an inverted motorized 1×81 Olympus (Melville, N.Y.) and the neurite length was analyzed with Metamorph software (Molecular Devices Corporation, Downingtown, Pa.). To minimize bias, neurons were evaluated blindly without the knowledge of sample identity. Four to six fields/well were chosen at random and only non-clustered neurons were evaluated to ensure the precision of the measurements. From each well, over 100 neurons were evaluated at 20× magnification for total neurite length/neuron. The data were obtained from triplicate wells and the experiments were repeated at least three times.
FIG. 2 provides graphical results of the data shown in Table 2, expressed as total neurite length per neuron. FIG. 3 provides graphical results of these experiments for compounds 11-50 (having designations as provided in Table 1, above), expressed as relative neurite length as compared to untreated controls. FIG. 4 provides graphical results of these experiments for compounds 1-10 (having designations as provided in Table 1, above), as applied to hippocampal neurons.
An additional assay was performed in which Compounds (A8), 4(A10), and 7(A9) were applied at varying dosages (from 10^−5 nM to 10 nM; 10^−5 nM, 10^−4 nM, 10^−2 nM, 0.1 nM, 1 nM, and 10 nM) as compared to DHA, synaptamide, and oleic acid. Neurite growth was measured at each dosage. Results of this assay are provided at FIG. 1.

SMILES	effect on relative neurite length as compared to synaptamide	also measured
CC/C=C\C/C=C\C/C=C\C/C=C\C/C=C\C/C=C\CCC(=O)NCCc1ccc(Cl)cc1Cl [Compound 37, (4Z,7Z,10Z,13Z,16Z,19Z)—N-(2,4-dichlorophenethyl)docosa-4,7,10,13,16,19-hexaenamide]	comparable or superior effect	–
CC/C=C\C/C=C\C/C=C\C/C=C\C/C=C\C/C=C\CCC(=O)O [DHA, Docosahexaenoic acid, reference compound]	–	Neurite Length/Neuron, individual values (DHA 100 nM (FIG. 2)): 10.9 μm and 19.4 μm and 13.3 μm
CC/C=C\C/C=C\C/C=C\C/C=C\C/C=C\C/C=C\CCC(=O)NCCN(C)C [Compound 5, (4Z,7Z,10Z,13Z,16Z,19Z)—N-(2-(dimethylamino)ethyl)docosa-4,7,10,13,16,19-hexaenamide]	–	Neurite Length/Neuron, individual values (10 nM (FIG. 2), listed as A5): 4.5 μm and 10.2 μm and 5.3 μm
CC/C=C\C/C=C\C/C=C\C/C=C\C/C=C\C/C=C\CCC(=O)NCC(C)C [Compound 24, (4Z,7Z,10Z,13Z,16Z,19Z)—N-isobutyldocosa-4,7,10,13,16,19-hexaenamide]	comparable or superior effect	–
CC/C=C\C/C=C\C/C=C\C/C=C\C/C=C\C/C=C\CCC(=O)NCc1ccccc1 [Compound 50, (4Z,7Z,10Z,13Z,16Z,19Z)—N-benzyldocosa-4,7,10,13,16,19-hexaenamide]	comparable or superior effect	–
CC/C=C\C/C=C\C/C=C\C/C=C\C/C=C\C/C=C\CCC(=O)NCc1cccs1 [Compound 21, (4Z,7Z,10Z,13Z,16Z,19Z)—N-(thiophen-2-ylmethyl)docosa-4,7,10,13,16,19-hexaenamide]	comparable or superior effect	–
CC/C=C\C/C=C\C/C=C\C/C=C\C/C=C\C/C=C\CCC(=O)NCCCc1ccccc1 [Compound 48, (4Z,7Z,10Z,13Z,16Z,19Z)—N-(3-phenylpropyl)docosa-4,7,10,13,16,19-hexaenamide]	comparable or superior effect	–
CC/C=C\C/C=C\C/C=C\C/C=C\C/C=C\C/C=C\CCC(=O)Nc1ccc2c(c1)OCCO2 [Compound 39, (4Z,7Z,10Z,13Z,16Z,19Z)—N-(2,3-dihydrobenzo[b][1,4]dioxin-6-yl)docosa-4,7,10,13,16,19-hexaenamide]	comparable or superior effect	–
CC/C=C\C/C=C\C/C=C\C/C=C\C/C=C\C/C=C\CCC(=O)NCc1nc2ccccc2[nH]1 [Compound 44, (4Z,7Z,10Z,13Z,16Z,19Z)—N-((1H-benzo[d]imidazol-2-yl)methyl)docosa-4,7,10,13,16,19-hexaenamide]	comparable or superior effect	–
CC/C=C\C/C=C\C/C=C\C/C=C\C/C=C\C/C=C\CCC(=O)NCc1ccccn1 [Compound 14, (4Z,7Z,10Z,13Z,16Z,19Z)—N-(pyridin-2-ylmethyl)docosa-4,7,10,13,16,19-hexaenamide]	comparable or superior effect	–
CC/C=C\C/C=C\C/C=C\C/C=C\C/C=C\C/C=C\CCC(=O)NCCCC [Compound 32, (4Z,7Z,10Z,13Z,16Z,19Z)—N-butyldocosa-4,7,10,13,16,19-hexaenamide]	comparable or superior effect	–
CC/C=C\C/C=C\C/C=C\C/C=C\C/C=C\C/C=C\CCC(=O)NCCCO [Compound 3, (4Z,7Z,10Z,13Z,16Z,19Z)—N-(3-hydroxypropyl)docosa-4,7,10,13,16,19-hexaenamide]	–	Neurite Length/Neuron, individual values (10 nM (FIG. 2), listed as A4): 2.9 μm and 4.1 μm and 4.3 μm
CC/C=C\C/C=C\C/C=C\C/C=C\C/C=C\C/C=C\CCC(=O)NCC(O)c1ccccc1 (stereo not drawn) [Compound 42, (4Z,7Z,10Z,13Z,16Z,19Z)—N-(2-hydroxy-2-phenylethyl)docosa-4,7,10,13,16,19-hexaenamide]	comparable or superior effect	–
CC/C=C\C/C=C\C/C=C\C/C=C\C/C=C\C/C=C\CCC(=O)NCC(C)(C)O [Compound 1, (4Z,7Z,10Z,13Z,16Z,19Z)—N-(2-hydroxy-2-methylpropyl)docosa-4,7,10,13,16,19-hexaenamide]	–	Neurite Length/Neuron, individual values (10 nM (FIG. 2), listed as A8): 45.0 μm and 33.6 μm and 45.3 μm
CC/C=C\C/C=C\C/C=C\C/C=C\C/C=C\C/C=C\CCC(=O)N[C@@H](C)CO [Compound 9, (4Z,7Z,10Z,13Z,16Z,19Z)—N—((S)-1-hydroxypropan-2-yl)docosa-4,7,10,13,16,19-hexaenamide]	–	Neurite Length/Neuron, individual values (10 nM (FIG. 2), listed as A2): 14.0 μm and 2.4 μm and 12.4 μm
CC/C=C\C/C=C\C/C=C\C/C=C\C/C=C\C/C=C\CCC(=O)NCC1CCCOC1 (stereo not drawn) [Compound 46, (4Z,7Z,10Z,13Z,16Z,19Z)—N-((tetrahydro-2H-pyran-3-yl)methyl)docosa-4,7,10,13,16,19-hexaenamide]	comparable or superior effect	–
CC/C=C\C/C=C\C/C=C\C/C=C\C/C=C\C/C=C\CCC(=O)NCCC#N [Compound 47, (4Z,7Z,10Z,13Z,16Z,19Z)—N-(2-cyanoethyl)docosa-4,7,10,13,16,19-hexaenamide]	comparable or superior effect	–
CC/C=C\C/C=C\C/C=C\C/C=C\C/C=C\C/C=C\CCC(=O)NC(c1ccccc1)C(F)(F)F (stereo not drawn) [Compound 33, (4Z,7Z,10Z,13Z,16Z,19Z)—N-(2,2,2-trifluoro-1-phenylethyl)docosa-4,7,10,13,16,19-hexaenamide]	comparable or superior effect	–
CC/C=C\C/C=C\C/C=C\C/C=C\C/C=C\C/C=C\CCC(=O)NCc1ccco1 [Compound 25, (4Z,7Z,10Z,13Z,16Z,19Z)—N-(furan-2-ylmethyl)docosa-4,7,10,13,16,19-hexaenamide]	comparable or superior effect	–
CC/C=C\C/C=C\C/C=C\C/C=C\C/C=C\C/C=C\CCC(=O)NCCN1CCOCC1 [Compound 4, (4Z,7Z,10Z,13Z,16Z,19Z)—N-(2-morpholinoethyl)docosa-4,7,10,13,16,19-hexaenamide]	–	Neurite Length/Neuron, individual values (10 nM (FIG. 2), listed as A10): 13.4 μm and 27.6 μm and 21.5 μm
CC/C=C\C/C=C\C/C=C\C/C=C\C/C=C\C/C=C\CCC(=O)NCCc1cccc(OC)c1 [Compound 20, (4Z,7Z,10Z,13Z,16Z,19Z)—N-(3-methoxyphenethyl)docosa-4,7,10,13,16,19-hexaenamide]	comparable or superior effect	–
CC/C=C\C/C=C\C/C=C\C/C=C\C/C=C\C/C=C\CCC(=O)NCC(C)(C)CN(C)C [Compound 36, (4Z,7Z,10Z,13Z,16Z,19Z)—N-(3-(dimethylamino)-2,2-dimethylpropyl)docosa-4,7,10,13,16,19-hexaenamide]	comparable or superior effect	–
CC/C=C\C/C=C\C/C=C\C/C=C\C/C=C\C/C=C\CCC(=O)NCCOCCOCCNC(=O)CCCC[C@@H]1SC[C@@H]2NC(=O)N[C@@H]21 [Compound 16, (4Z,7Z,10Z,13Z,16Z,19Z)—N-(2-(2-(2-(5-((3aS,4S,6aR)-2-oxohexahydro-1H-thieno[3,4-d]imidazol-4-yl)pentanamido)ethoxy)ethoxy)ethyl)docosa-4,7,10,13,16,19-hexaenamide]	comparable or superior effect	–
CC/C=C\C/C=C\C/C=C\C/C=C\C/C=C\C/C=C\CCC(=O)NCCN1CCCC1 [Compound 41, (4Z,7Z,10Z,13Z,16Z,19Z)—N-(2-(pyrrolidin-1-yl)ethyl)docosa-4,7,10,13,16,19-hexaenamide]	comparable or superior effect	–
